Experimental data: EP3958980B1, “TARGETED NOVEL TRIAZOLOTHIADIAZINE DERIVATIVES FOR THE TREATMENT OF LUNG CANCER” (Anadolu Universitesi, priority 2020, dated 2021)

System: A549 human lung adenocarcinoma cells
Experiment: MTT assay, in vitro cytotoxic activity on A549
Format: cell-based
Conditions: SI= IC50 for CCDLul9 cell line / IC50 for A549 cell line
Method: The in vitro cytotoxic effects of the compounds were determined with the MTT assay. For this purpose, MTT test was performed using A549 and CCD-19Lu cell lines. After the cell lines used in the invention were centrifuged following taking them out from liquid nitrogen (-196 °C), the cells were cultured in a CO2 incubator comprising 5% CO2 at 37 °C in flasks containing 10% fetal bovine serum (FBS), where CCD-19Lu cells were cultured with Dulbecco's Modified Eagle's Medium (DMEM) and A549 cells were cultured with Roswell Park Memorial Institute (RPMI). The cells that reach the sufficient number for the assay, were seeded to 96 well plates such that 2×10^3 cells were placed in each well and at the same time, components at concentrations of 1-500 µg/mL were added to cells and they were incubated at 37 °C. At the end of the 24 hour incubation period, the MTT powder (5 mg/mL in 1 × phosphate buffered saline (PBS)) was added to each well (20 µL). After a 2-4 h period under the same conditions, the medium was removed from the plate and 100 µL of DMSO was added to each well to dissolve the dye and kept for 10 minutes. Then the plates were read at a wavelength of 540 nm using ELx808-IU Bio-Tek plate reader. The control cell viability which was not treated with the components was accepted to be 100% and the viability rates of the cells were expressed as %. […] According to the results obtained, the dose range was extended until the IC50 value was determined. MTT assay is a frequently used method which measures the cytotoxic effects of the compounds on the cells by converting the yellow colored MTT stain into purple colored formazan crystals via the mitochondrial succinate dehydrogenase activity. In the cytotoxic activity tests of the compounds, A549 lung adenocarcinoma and CCDLu19 normal lung fibroblast cell lines were used.

SMILES | SI values*
CS(=O)(=O)c1ccc(C2=Nn3c(CCc4ccc5c(c4)OCO5)nnc3SC2)cc1 [Compound 9] | 17.68
FC(F)(F)c1ccc(C2=Nn3c(CCc4ccc5c(c4)OCO5)nnc3SC2)cc1 [Compound 11, 3-[2-(1,3-Benzodioxole-5-yl)ethyl]-6-(4-trifluoromethylphenyl)-7H-[1,2,4]triazolo [3,4-b][1,3,4]thiadiazine] | 155.25
Fc1cccc(C2=Nn3c(CCc4ccc5c(c4)OCO5)nnc3SC2)c1 [Compound 12, 3-[2-(1,3-Benzodioxole-5-yl)ethyl]-6-(3-fluorophenyl)-7H-[1,2,4]triazolo [3,4-b] [1,3,4]thiadiazine] | 42.91
c1ccc(-c2ccc(C3=Nn4c(CCc5ccc6c(c5)OCO6)nnc4SC3)cc2)cc1 [Compound 14, 3-[2-(1,3-Benzodioxole-5-yl)ethyl]-6-(biphenyl-4-yl)-7H-[1,2,4]triazolo[3,4-b] [1,3,4]thiadiazine] | 24.71
